Experimental data taken from the supplement of paper PMC10849652.
This is one part of the list.

The chains behind the UniProt entries cited, without tags or fusion partners. Where a name states a change or a piece, a line headed by the entry shows the natural chain unless it says otherwise.
UniProt Q9BSK4: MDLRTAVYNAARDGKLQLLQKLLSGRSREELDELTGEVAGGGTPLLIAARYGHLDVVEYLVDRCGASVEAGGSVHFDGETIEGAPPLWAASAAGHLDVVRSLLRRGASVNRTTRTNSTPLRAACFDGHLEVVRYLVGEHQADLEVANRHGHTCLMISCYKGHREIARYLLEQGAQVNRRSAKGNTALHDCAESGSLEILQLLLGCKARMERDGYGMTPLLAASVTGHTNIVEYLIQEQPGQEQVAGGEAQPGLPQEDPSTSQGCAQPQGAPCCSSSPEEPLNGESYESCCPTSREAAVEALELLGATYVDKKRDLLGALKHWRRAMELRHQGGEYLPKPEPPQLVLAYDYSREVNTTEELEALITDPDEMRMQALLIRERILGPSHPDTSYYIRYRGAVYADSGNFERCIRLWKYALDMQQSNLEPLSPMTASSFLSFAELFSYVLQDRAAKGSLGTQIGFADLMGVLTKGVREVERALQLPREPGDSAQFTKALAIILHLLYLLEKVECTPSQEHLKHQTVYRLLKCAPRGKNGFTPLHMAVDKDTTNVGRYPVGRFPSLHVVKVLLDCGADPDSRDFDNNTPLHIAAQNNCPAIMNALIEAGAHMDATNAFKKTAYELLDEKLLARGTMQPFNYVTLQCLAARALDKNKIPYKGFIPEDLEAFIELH
UniProt Q8N0W7: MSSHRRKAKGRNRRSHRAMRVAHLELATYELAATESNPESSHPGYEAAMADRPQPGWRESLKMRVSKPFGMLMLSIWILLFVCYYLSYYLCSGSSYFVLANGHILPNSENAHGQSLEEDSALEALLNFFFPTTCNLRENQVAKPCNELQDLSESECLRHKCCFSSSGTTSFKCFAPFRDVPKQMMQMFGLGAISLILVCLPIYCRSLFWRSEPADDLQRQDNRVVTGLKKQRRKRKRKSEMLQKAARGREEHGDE
UniProt Q96JP0: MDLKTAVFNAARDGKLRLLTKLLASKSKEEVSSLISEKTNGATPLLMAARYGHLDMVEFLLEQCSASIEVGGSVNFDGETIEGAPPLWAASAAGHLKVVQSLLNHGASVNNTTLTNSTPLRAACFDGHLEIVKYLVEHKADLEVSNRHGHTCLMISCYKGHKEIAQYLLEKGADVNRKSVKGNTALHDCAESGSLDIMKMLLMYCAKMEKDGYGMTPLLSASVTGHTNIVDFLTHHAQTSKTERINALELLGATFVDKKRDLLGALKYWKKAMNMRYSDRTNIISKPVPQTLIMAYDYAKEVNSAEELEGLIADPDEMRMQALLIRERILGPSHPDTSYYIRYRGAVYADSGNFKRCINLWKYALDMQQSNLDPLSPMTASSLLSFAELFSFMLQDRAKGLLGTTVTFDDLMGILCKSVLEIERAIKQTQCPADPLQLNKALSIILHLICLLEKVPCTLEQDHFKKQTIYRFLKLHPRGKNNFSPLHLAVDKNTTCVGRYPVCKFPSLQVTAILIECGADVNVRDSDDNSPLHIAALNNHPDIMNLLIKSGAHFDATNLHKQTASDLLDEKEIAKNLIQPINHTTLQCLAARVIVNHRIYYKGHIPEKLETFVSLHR
UniProt Q4L180: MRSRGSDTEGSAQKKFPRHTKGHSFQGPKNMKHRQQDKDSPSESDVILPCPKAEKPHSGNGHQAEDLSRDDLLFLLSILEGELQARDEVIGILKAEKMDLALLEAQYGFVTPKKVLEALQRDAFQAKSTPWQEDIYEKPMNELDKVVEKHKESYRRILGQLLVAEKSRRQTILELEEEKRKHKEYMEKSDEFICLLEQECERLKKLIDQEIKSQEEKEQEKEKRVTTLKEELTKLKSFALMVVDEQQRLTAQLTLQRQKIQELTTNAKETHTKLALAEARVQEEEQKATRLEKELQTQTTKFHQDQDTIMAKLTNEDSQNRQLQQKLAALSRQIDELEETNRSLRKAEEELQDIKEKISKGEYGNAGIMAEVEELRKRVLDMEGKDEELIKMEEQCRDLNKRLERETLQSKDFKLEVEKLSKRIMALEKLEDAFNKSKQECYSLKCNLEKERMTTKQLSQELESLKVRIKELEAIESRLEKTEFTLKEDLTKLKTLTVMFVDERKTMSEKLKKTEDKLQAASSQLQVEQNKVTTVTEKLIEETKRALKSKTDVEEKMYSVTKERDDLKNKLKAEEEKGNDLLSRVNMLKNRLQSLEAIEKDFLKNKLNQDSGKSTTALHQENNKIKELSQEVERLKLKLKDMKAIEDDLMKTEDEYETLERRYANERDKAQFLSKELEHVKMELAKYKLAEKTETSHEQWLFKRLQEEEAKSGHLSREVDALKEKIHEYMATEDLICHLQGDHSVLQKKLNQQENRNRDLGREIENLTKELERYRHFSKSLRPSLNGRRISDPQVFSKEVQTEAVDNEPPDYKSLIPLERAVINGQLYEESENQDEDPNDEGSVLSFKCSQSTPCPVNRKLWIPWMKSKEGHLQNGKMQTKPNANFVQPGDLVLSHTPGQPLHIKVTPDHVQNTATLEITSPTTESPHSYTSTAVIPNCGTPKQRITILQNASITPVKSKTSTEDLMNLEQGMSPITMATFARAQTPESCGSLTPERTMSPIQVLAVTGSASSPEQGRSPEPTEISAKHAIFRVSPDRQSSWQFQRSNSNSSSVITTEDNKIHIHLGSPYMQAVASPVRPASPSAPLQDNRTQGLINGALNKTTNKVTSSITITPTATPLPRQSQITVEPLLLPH
UniProt Q9UHY8: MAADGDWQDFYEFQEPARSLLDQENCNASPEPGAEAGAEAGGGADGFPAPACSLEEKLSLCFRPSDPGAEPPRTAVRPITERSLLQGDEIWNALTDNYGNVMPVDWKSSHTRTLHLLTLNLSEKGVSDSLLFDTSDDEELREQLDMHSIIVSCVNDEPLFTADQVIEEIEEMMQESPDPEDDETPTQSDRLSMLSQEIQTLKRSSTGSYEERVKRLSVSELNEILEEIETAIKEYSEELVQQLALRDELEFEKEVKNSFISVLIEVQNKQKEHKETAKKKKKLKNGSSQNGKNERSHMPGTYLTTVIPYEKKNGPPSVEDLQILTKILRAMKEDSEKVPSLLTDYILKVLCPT
UniProt Q9NPI8: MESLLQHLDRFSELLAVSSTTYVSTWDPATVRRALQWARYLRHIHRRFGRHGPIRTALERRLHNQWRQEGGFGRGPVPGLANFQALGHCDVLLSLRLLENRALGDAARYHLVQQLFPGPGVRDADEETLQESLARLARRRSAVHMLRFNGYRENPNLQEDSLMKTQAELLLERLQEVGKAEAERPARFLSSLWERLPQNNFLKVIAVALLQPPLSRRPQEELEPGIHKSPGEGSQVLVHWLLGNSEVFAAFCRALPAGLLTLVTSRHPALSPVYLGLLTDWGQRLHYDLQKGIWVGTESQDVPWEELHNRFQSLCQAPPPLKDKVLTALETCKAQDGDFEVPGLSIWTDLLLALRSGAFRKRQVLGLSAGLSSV
UniProt Q9UKT8: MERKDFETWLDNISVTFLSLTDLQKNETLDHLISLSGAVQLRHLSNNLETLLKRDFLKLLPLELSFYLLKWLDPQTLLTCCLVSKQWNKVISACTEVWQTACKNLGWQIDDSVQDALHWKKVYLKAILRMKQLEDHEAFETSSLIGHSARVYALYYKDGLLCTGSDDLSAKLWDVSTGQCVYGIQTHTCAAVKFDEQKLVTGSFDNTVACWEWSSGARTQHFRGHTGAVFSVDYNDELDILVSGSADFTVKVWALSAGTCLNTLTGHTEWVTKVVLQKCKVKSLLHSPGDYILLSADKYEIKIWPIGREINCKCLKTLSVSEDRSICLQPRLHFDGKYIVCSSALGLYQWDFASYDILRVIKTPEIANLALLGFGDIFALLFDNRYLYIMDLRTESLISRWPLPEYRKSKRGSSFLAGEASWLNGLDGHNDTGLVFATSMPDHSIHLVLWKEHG
UniProt Q9P0K8: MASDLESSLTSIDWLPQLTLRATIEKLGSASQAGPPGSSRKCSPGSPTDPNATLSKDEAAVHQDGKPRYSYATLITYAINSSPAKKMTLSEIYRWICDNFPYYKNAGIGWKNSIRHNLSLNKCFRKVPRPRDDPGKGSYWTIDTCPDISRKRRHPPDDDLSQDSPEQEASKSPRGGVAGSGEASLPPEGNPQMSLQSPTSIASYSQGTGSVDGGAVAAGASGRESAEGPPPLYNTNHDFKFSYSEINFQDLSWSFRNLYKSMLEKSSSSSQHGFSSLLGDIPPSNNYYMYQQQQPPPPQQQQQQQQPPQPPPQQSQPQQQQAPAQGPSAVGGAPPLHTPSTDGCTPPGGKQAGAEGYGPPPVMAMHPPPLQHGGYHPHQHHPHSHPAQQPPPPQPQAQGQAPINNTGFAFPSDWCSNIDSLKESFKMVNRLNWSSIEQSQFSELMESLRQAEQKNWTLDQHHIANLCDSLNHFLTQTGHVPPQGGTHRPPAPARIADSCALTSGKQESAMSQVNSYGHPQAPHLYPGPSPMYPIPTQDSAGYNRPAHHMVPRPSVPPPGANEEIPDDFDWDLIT
UniProt Q9Y324: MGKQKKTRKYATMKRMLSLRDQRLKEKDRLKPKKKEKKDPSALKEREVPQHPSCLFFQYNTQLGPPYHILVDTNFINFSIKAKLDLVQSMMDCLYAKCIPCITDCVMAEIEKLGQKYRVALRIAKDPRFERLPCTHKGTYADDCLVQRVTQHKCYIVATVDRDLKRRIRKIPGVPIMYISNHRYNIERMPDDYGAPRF

Experiments:
Experiment in all cases: log2 fold change, soluble protein after heating vs DMSO (PISA); higher = thermal stabilisation; K562 lysate, 10 uM; active = over 0.2 and 3.5 SD of the protein, either way, in both replicates (recomputed)
lapatinib = compound: CS(=O)(=O)CCNCc1ccc(-c2ccc3ncnc(Nc4ccc(OCc5cccc(F)c5)c(Cl)c4)c3c2)o1 [lapatinib]
Procedure, shortened: (§1)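 A 30 min treatment with 10 μM compound was applied to crude K562 extract at 1 mg/mL protein in PBS pH 7.4 with 1 mM MgCl2. Heating for 3 min spanned 48°C-58°C, after which aliquots were pooled, adjusted to 0.5% NP-40 at 4°C and spun at 21,000xg for 90 min. TMTpro 16plex LC-MS/MS of the supernatant, with channel sums equalised, gave values recorded as log-two fold change in thermal stability against solvent controls, from duplicates.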

tozasertib = compound: Cc1cc(Nc2cc(N3CCN(C)CC3)nc(Sc3ccc(NC(=O)C4CC4)cc3)n2)n[nH]1 [tozasertib]
Procedure, shortened: as §1

crizotinib = compound: C[C@@H](Oc1cc(-c2cnn(C3CCNCC3)c2)cnc1N)c1c(Cl)ccc(F)c1Cl [crizotinib]
Procedure, shortened: as §1

doramapimod = compound: Cc1ccc(-n2nc(C(C)(C)C)cc2NC(=O)Nc2ccc(OCCN3CCOCC3)c3ccccc23)cc1 [doramapimod]
Procedure, shortened: as §1

duvelisib = compound: C[C@H](Nc1ncnc2nc[nH]c12)c1cc2cccc(Cl)c2c(=O)n1-c1ccccc1 [duvelisib]
Procedure, shortened: as §1

[1] = compound: C[C@H](C1=CC=C(C=C1)C(=O)NC2=C3C=CNC3=NC=C2)N
Procedure, shortened: as §1

gandotinib = compound: Cc1cc(Nc2cc(CN3CCOCC3)c3nc(C)c(Cc4ccc(Cl)cc4F)n3n2)n[nH]1 [gandotinib]
Procedure, shortened: as §1

[2] = compound: Cc1cccc(CC(=O)N2CCc3c2ccc(-c2cn(C)c4ncnc(N)c24)c3F)n1
Procedure, shortened: as §1

pictilisib = compound: CS(=O)(=O)N1CCN(Cc2cc3nc(-c4cccc5[nH]ncc45)nc(N4CCOCC4)c3s2)CC1 [pictilisib]
Procedure, shortened: as §1

bafetinib = compound: Cc1ccc(NC(=O)c2ccc(CN3CC[C@H](N(C)C)C3)c(C(F)(F)F)c2)cc1Nc1nccc(-c2cncnc2)n1 [bafetinib]
Procedure, shortened: as §1

Measured: log2 fold change

FEM1A (UniProt Q9BSK4)
inactive: lapatinib -0.098 | tozasertib 0.274

FMR1NB (UniProt Q8N0W7)
inactive: crizotinib 0.047 | doramapimod -0.141

FEM1C (UniProt Q96JP0)
inactive: duvelisib 0.059

Retrieved one by one from the entries so far (two):
FEM1A (UniProt Q9BSK4)
inactive: lapatinib -0.098 | tozasertib 0.274

FMR1NB (UniProt Q8N0W7)
inactive: crizotinib 0.047 | doramapimod -0.141

Remaining list, next part:

FILIP1L (UniProt Q4L180)
inactive: lapatinib 0.013 | duvelisib 0.031 | tozasertib -0.059

FEZ2 (UniProt Q9UHY8)
inactive: [1] -0.039 | gandotinib -0.048 | [2] 0.062

FANCF (UniProt Q9NPI8)
inactive: crizotinib -0.076 | [1] 0.226 | gandotinib -0.543 | doramapimod 0.097 | [2] -0.367

FBXW2 (UniProt Q9UKT8)
inactive: pictilisib -0.034 | crizotinib 0.035 | [1] -0.001 | duvelisib 0.075 | gandotinib -0.069 | doramapimod 0.074 | bafetinib -0.021 | [2] -0.026

FBRS (UniProt J3KNZ9)
inactive: pictilisib -0.07 | crizotinib -0.05 | [1] 0.02 | duvelisib -0.043 | gandotinib -0.057 | tozasertib 0.087 | doramapimod -0.044 | bafetinib 0.123 | [2] 0.008

FBRSL1, A0A3B3IRR3
inactive: pictilisib -0.064 | crizotinib 0.086 | [1] -0.114 | duvelisib 0.035 | gandotinib 0.032 | tozasertib -0.105 | doramapimod -0.161 | bafetinib -0.089 | [2] 0.146

FOXJ2 (UniProt Q9P0K8)
inactive: pictilisib 0.043 | [1] -0.037 | duvelisib 0.039 | gandotinib 0.044 | tozasertib 0.127 | bafetinib -0.224 | [2] 0.056

FCF1 (UniProt Q9Y324)
inactive: crizotinib -0.195 | [1] -0.109 | duvelisib 0.051 | gandotinib -0.007 | doramapimod 0.008 | [2] -0.073
